Source: patent publication US20090304663A1, “USE OF GSK-3 INHIBITORS FOR THE TREATMENT OF PROSTATE CANCER” (IMPERIAL INNOVATIONS LIMITED, priority 2004, published 2009)
These are yes or no findings as the source states them, for the method shown. In cells and extracts the contact can be indirect. Some entries that bind do so weakly or less than the wild type.

By UniProt entry, the sequences of proteins in these tests, tags left out.
UniProt P49841: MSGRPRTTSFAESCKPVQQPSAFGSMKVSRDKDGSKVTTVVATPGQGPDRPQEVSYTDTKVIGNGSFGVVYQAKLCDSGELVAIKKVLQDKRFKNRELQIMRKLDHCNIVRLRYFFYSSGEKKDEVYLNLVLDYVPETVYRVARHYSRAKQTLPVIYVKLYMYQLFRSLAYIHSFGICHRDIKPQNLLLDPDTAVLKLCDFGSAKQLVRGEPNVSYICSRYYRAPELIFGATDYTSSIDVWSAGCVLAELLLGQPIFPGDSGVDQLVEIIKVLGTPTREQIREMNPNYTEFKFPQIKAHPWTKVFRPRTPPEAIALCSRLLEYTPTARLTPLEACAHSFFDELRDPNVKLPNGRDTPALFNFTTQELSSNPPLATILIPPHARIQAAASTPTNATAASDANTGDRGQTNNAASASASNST
UniProt P10275: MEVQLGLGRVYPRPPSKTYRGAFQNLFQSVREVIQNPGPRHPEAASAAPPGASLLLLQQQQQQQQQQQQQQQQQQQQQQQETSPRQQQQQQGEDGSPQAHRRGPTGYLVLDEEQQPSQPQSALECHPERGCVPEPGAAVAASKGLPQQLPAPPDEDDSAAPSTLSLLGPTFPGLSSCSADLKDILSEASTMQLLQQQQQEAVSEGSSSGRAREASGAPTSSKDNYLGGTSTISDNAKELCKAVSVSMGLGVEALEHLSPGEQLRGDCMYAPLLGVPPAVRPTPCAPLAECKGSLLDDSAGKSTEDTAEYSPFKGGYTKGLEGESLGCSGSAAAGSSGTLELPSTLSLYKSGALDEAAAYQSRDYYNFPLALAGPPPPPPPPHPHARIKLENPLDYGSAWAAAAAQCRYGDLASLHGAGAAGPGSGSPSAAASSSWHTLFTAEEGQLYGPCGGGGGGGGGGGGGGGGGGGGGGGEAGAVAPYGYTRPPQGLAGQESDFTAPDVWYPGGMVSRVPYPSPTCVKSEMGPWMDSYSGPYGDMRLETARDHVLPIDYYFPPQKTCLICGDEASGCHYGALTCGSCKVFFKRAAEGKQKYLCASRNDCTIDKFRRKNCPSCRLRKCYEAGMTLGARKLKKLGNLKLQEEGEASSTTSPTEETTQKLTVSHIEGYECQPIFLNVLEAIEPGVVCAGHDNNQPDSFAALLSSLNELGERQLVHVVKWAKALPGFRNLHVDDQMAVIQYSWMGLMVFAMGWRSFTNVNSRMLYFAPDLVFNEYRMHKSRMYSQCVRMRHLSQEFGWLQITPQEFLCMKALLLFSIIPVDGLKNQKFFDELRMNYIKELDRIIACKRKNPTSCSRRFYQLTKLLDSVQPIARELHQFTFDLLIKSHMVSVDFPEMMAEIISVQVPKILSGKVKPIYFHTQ

Columns and labels:
myc epitope-tagged GSK-3 [1] = biological target: myc epitope-tagged GSK-3 (UniProt P49841); assay: co-immunoprecipitation from transfected COS7 cell extracts
myc epitope-tagged GSK-3 [2] = biological target: myc epitope-tagged GSK-3 (UniProt P49841); assay: co-immunoprecipitation with 9E10 (myc-GSK-3) from transfected COS7 cell extracts, blot with anti-AR
androgen receptor (AR) = androgen receptor (AR) (UniProt P10275); assay: co-immunoprecipitation with polyclonal anti-AR from transfected COS7 cell extracts, blot with 9E10

Row | Substance | binding (myc epitope-tagged GSK-3 [1]) | binding (myc epitope-tagged GSK-3 [2]) | binding (androgen receptor (AR))
1 | androgen receptor (AR) (from UniProt P10275 1-920) | binds | binds | –
2 | myc epitope-tagged GSK-3 (from UniProt P49841 1-420) (enzyme) | – | – | binds
